The values that follow come from paper PMC3598860.

Protein sequences, listed by entry. Tags and fused reporters are not part of them.
UniProt Q13616: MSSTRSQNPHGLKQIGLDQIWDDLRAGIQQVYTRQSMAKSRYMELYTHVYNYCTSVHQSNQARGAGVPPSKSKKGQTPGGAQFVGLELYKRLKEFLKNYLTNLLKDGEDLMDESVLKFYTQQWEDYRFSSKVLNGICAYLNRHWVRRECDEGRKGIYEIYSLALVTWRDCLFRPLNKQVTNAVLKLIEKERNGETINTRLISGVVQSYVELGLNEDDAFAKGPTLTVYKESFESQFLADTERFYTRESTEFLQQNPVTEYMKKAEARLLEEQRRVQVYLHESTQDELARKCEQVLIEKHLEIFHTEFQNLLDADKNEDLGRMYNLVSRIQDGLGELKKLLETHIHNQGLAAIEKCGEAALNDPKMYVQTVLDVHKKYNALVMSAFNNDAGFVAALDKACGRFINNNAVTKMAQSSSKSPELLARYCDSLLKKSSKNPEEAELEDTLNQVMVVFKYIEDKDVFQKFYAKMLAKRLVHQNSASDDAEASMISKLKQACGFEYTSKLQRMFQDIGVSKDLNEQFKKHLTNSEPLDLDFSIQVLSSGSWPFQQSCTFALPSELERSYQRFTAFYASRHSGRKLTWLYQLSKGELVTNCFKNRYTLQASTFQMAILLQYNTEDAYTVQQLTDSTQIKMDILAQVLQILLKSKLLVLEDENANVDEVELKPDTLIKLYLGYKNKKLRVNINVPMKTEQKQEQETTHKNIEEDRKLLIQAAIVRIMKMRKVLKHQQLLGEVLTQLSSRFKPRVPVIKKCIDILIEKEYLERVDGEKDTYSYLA

Results are given in words; binding and its absence hold for the method and conditions named. In cells and extracts the contact can be indirect. Binding calls can cover weak binding; strength is not graded here. For some assays here: Where a sequence is shown, tags or fusion partners need not be part of it.

Experiment [1] addresses HA-Cul1 (UniProt Q13616). Description: co-IP; transfected HEK293 or HEK293T cells; lysis in 20 mM Tris-HCl pH 7.5, 150 mM NaCl, 1 mM EDTA, 0.5% NP-40; anti-Flag M2 agarose or anti-HA agarose, 2 hours at 4°C; immunoblot; in some panels cells treated with MLN4924, MG132 or 5 ng/ml TNF-α. Background: Immunoblotting shows a protein as a band on a membrane.
The target in experiment [2] is T1, HA-Brap2 WT (human) (UniProt Q7Z569).
T1 sequence: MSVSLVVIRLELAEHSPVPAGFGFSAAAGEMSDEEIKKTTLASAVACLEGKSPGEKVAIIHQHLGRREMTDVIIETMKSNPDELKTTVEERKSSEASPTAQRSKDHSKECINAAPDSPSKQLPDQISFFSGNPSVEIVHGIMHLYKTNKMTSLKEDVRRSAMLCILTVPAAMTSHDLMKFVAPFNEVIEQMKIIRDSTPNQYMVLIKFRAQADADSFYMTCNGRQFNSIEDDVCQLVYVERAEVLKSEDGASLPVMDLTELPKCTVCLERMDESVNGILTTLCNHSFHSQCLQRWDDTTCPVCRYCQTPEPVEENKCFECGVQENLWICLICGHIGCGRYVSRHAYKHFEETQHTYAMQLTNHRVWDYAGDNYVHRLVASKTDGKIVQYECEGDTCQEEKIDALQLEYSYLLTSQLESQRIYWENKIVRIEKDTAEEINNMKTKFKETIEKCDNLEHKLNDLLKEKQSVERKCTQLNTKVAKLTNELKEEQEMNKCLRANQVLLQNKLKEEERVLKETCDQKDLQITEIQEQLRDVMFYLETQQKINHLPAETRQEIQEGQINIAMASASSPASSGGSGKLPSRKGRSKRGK
The experiment is described as above.

For “Flag-Brap2 CA (single mutation at cysteine-264 in the RING-finger domain) (from UniProt Q7Z569)”, the binding entry in experiment [1] is recorded as “binds weakly”; in experiment [2] it was “binds”.
